{"source": "the supplement of paper PMC5949888", "note": "Most values lie at the floor of the assay. Slopes are relative: functional sequences can read slightly below zero."}
{"system": "Saccharomyces cerevisiae PS128 hsf1 delta, HSF1(1-493) fusion", "assay": "growth estimate (transactivation domain function in HSF1 fusion, heat-shock survival) (a.u. (slope of normalised read count over time)); higher = stronger growth at 37°C, i.e. more transactivation activity", "settings": "library: random library", "description": "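Random 60-nt DNA library encoding peptides of up to 20 aa, fused to the C-terminus of yeast HSF1 residues 1-493 (C-terminal TAD deleted) and expressed from the native HSF1 promoter on a CEN plasmid in hsf1-deleted S. cerevisiae PS128. Cells were selected at 37°C on -trp 5-FOA plates for 0, 2, 4, 6 and 8 days and amplicons were sequenced. Growth estimate is the slope of a robust linear fit of total-sum-normalised read counts (normalised to the first time point) over time, using at least 2 replicates. Sequences are classed functional (TAD activity) above a threshold of -0.13, set from stop-codon control sequences.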"}
{"substance": "GYFLFVPVVLSTSDSSLLTK", "growth estimate": "< -0.25"}
{"substance": "GYGITP", "growth estimate": "< -0.25"}
{"substance": "GYGKDSTYVPDEPRGSILGH", "growth estimate": "< -0.25"}
{"substance": "GYGPIVSRPHSRPCHCCSSR", "growth estimate": "< -0.25"}
{"substance": "GYGRGTERAHTAGVIGYHWA", "growth estimate": -0.0581}
{"substance": "GYGRPDWPGVASWIPFAFRP", "growth estimate": "< -0.25"}
{"substance": "GYIEWV", "growth estimate": "< -0.25"}
{"substance": "GYLRRIWDRPAAKHRRLLTS", "growth estimate": "< -0.25"}
{"substance": "GYPGLWGSCLVTLFTRTDRT", "growth estimate": "< -0.25"}
{"substance": "GYPLLCYFSAVSIQERKQAE", "growth estimate": "< -0.25"}
{"substance": "GYRAV", "growth estimate": "< -0.25"}
{"substance": "GYRS", "growth estimate": "< -0.25"}
{"substance": "GYSCSAIRS", "growth estimate": "< -0.25"}
{"substance": "GYSGRRPKSSNAS", "growth estimate": "< -0.25"}
{"substance": "GYSTEVPYLGSEAEAR", "growth estimate": "< -0.25"}
{"substance": "GYSTLYLSEATPGNPASLDY", "growth estimate": "< -0.25"}
{"substance": "GYTGDSAMFSWTQRFMQLTE", "growth estimate": "< -0.25"}
{"substance": "GYWLCPRNLAW", "growth estimate": "< -0.25"}
{"substance": "GYWSRRLCVQSSKPLFHPLG", "growth estimate": "< -0.25"}
{"substance": "GYYDQVDQGALSGIRCRATT", "growth estimate": "< -0.25"}
{"substance": "HAAGPGGKTAAGLLLHSVNY", "growth estimate": "< -0.25"}
{"substance": "HACKAEAEEVEYGHRG", "growth estimate": "< -0.25"}
{"substance": "HADSANSFGRLLSPTLVTRT", "growth estimate": "< -0.25"}
{"substance": "HAGSSCTMGDVRFSQVKHIG", "growth estimate": "< -0.25"}
{"substance": "HAIQ", "growth estimate": "< -0.25"}
{"substance": "HAISKHVISESSRPARFRAV", "growth estimate": "< -0.25"}
{"substance": "HAKRLLYSR", "growth estimate": "< -0.25"}
{"substance": "HALCGGLPCKYNYYGGCV", "growth estimate": "< -0.25"}
{"substance": "HANACVVGRLISATTPRRAR", "growth estimate": "< -0.25"}
{"substance": "HAPCGQLSFRRQDAVPLKFA", "growth estimate": -0.117}
{"substance": "HAPGDRVAPIC", "growth estimate": "< -0.25"}
{"substance": "HASCGGGKIHWSVNW", "growth estimate": "< -0.25"}
{"substance": "HAVNRLDQTHL", "growth estimate": "< -0.25"}
{"substance": "HCAVMNFQGTLVRVGEIAHP", "growth estimate": "< -0.25"}
{"substance": "HCDRIGNREKEYRPPSVRML", "growth estimate": "< -0.25"}
{"substance": "HCEEYKGSYRCVRCAYIQQG", "growth estimate": "< -0.25"}
{"substance": "HCG", "growth estimate": "< -0.25"}
{"substance": "HCGEIRSSDYGASDRKVDPL", "growth estimate": "< -0.25"}
{"substance": "HCGRDQGRDKLQPIRRLSQR", "growth estimate": "< -0.25"}
{"substance": "HCKRTYLDVLGSSRGRCSRQ", "growth estimate": "< -0.25"}
{"substance": "HCKRYHKFHPGATAPPHGPS", "growth estimate": "< -0.25"}
{"substance": "HCPGLVCINALSDNGYDLRP", "growth estimate": "< -0.25"}
{"substance": "HCPLWR", "growth estimate": "< -0.25"}
{"substance": "HCRNY", "growth estimate": "< -0.25"}
{"substance": "HCSALQTHYYACVKMTVRLR", "growth estimate": "< -0.25"}
{"substance": "HCTVPKMEPRKSALRRRCRD", "growth estimate": "< -0.25"}
{"substance": "HCYDGISVDVRVPVGRLK", "growth estimate": "< -0.25"}
{"substance": "HDGAVRQSFRVRR", "growth estimate": "< -0.25"}
{"substance": "HDGTAVPYLRGAPPAVMYTA", "growth estimate": "< -0.25"}
{"substance": "HDIARATRQSNIHGVNS", "growth estimate": "< -0.25"}
{"substance": "HDLACCLKPGLVVRIHAVYT", "growth estimate": "< -0.25"}
{"substance": "HDLRVTSAIMNTA", "growth estimate": "< -0.25"}
{"substance": "HDQKMASSRSRIETADQIQD", "growth estimate": "< -0.25"}
{"substance": "HDRGITMHVNILFESGTVNV", "growth estimate": "< -0.25"}
{"substance": "HDTAP", "growth estimate": "< -0.25"}
{"substance": "HDVWSSVLIGLPVRGGCVTV", "growth estimate": "< -0.25"}
{"substance": "HECDLVFTVRYCIRYTRLAA", "growth estimate": "< -0.25"}
{"substance": "HEDYCWGIASHASLDPAT", "growth estimate": "< -0.25"}
{"substance": "HEEA", "growth estimate": "< -0.25"}
{"substance": "HEERWVRHGLREKVLA", "growth estimate": "< -0.25"}
{"substance": "HEEWTGRAKSRPDLSGQNPS", "growth estimate": "< -0.25"}
{"substance": "HEIERGY", "growth estimate": "< -0.25"}
{"substance": "HELRFPDVGNGLSA", "growth estimate": "< -0.25"}
{"substance": "HEMYPVHRLLLIQQKNGLQH", "growth estimate": "< -0.25"}
{"substance": "HENG", "growth estimate": "< -0.25"}
{"substance": "HEQQ", "growth estimate": "< -0.25"}
{"substance": "HERASAEFEKTSFCSTNMEP", "growth estimate": "< -0.25"}
{"substance": "HERHLGGEEKYLITTNLLS", "growth estimate": "< -0.25"}
{"substance": "HFATSATWPNSKEG", "growth estimate": "< -0.25"}
{"substance": "HFDRKTGPP", "growth estimate": "< -0.25"}
{"substance": "HFGAGLEPHLHPLQHDATCT", "growth estimate": "< -0.25"}
{"substance": "HFGSLSRGFLSKDFPIRLF", "growth estimate": "< -0.25"}
{"substance": "HFIGIMSSSGIVRTTIQIML", "growth estimate": "< -0.25"}
{"substance": "HFL", "growth estimate": "< -0.25"}
{"substance": "HFQV", "growth estimate": "< -0.25"}
{"substance": "HFV", "growth estimate": "< -0.25"}
{"substance": "HGALTLFICLHVSRCLFPSL", "growth estimate": "< -0.25"}
{"substance": "HGARSAVRRGLYHFLSKRDF", "growth estimate": "< -0.25"}
{"substance": "HGCVLRSAWGYFSQTYEGSK", "growth estimate": "< -0.25"}
{"substance": "HGDSMA", "growth estimate": "< -0.25"}
{"substance": "HGDSRVLCS", "growth estimate": "< -0.25"}
{"substance": "HGDTNLGLRSDKIELPYFVT", "growth estimate": "< -0.25"}
{"substance": "HGDYTILPADQQRN", "growth estimate": "< -0.25"}
{"substance": "HGERHLRSVPE", "growth estimate": "< -0.25"}
{"substance": "HGERKVVLFMCSAVRRPGGC", "growth estimate": "< -0.25"}
{"substance": "HGFGLE", "growth estimate": "< -0.25"}
{"substance": "HGGGRVHLKLAKLIWGRVRP", "growth estimate": "< -0.25"}
{"substance": "HGGSRSQKPRWPYRAQEVHT", "growth estimate": -0.245}
{"substance": "HGHRHRRRPFVPRRTRKQCL", "growth estimate": "< -0.25"}
{"substance": "HGHVGRVWLKPYHLP", "growth estimate": "< -0.25"}
{"substance": "HGLAVPEARKFDSGEIDTHP", "growth estimate": "< -0.25"}
{"substance": "HGLPASQDITS", "growth estimate": "< -0.25"}
{"substance": "HGLRLYRTWVRLFESCIFSK", "growth estimate": "< -0.25"}
{"substance": "HGLSWDWHTSGMRASEGSTC", "growth estimate": "< -0.25"}
